Measured values from PubChem BioAssay AID2685 (National Center for Advancing Translational Sciences (NCATS), 2010).
Screen size: about 320,000 compounds; about 2,100 (0.66%) were called active. This list was built around the results that the source calls inconclusive (neither active nor inactive); the mix of calls is not that of the screen. The call rests on the fitted dose curve; in most records, active means well fitted inhibition curve with a large enough effect in the signal ratio, with a control signal flat (not every such curve was filed as active); inconclusive means small, poorly fitted or top-dose-only effect, or effect the other way, or a change in a side signal; inactive means flat fitted curve, though single readings scatter; the % refers to the signal ratio. Potencies of inconclusive entries are doubtful fits and often do not repeat.

Experiment: qHTS Assay for Lipid Storage Modulators in Drosophila S3 Cells
Conditions: BODIPY lipid droplet fluorescence, 18-24 h, cells fed with added oleic acid; lipid storage change, negative = inhibition: at 46.1 µM (top of the series) unless noted
Procedure, shortened: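 Laser-scanning cytometry quantifies lipid droplet accumulation (500–530 nm total intensity; droplet/cell object ratio) in oleic acid-fed (400 uM added) Drosophila S3 cells treated with a concentration series. 20 uM Triacsin C defined 100% inhibition.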
On the % scale 0 is the no-effect control and ±100 the full control effect; potency means the concentration at half of the fitted maximal effect.

Lipid storage change, negative = inhibition, inactive:
CC1CCN(c2ccccc2NC(=O)c2ccc([N+](=O)[O-])o2)CC1

Lipid storage change, negative = inhibition, inconclusive:
CCOC(=O)CC1CCCCN1C(=O)c1ccc2nc(CCOC)oc2c1 (configuration not stated) -20.7%
COc1ccc(C2c3[nH]c4ccccc4c3CCN2CCCn2cccn2)c(C)c1C (configuration not stated) 8.66%
CC(NCC(=O)Nc1cc(S(=O)(=O)N2CCOCC2)ccc1N1CCOCC1)c1ccco1 (configuration not stated) 3.05%
COC(=O)CSc1nc(NC(C)(C)C)nc(N(C)C)n1 -20.3%
Cc1ccc(NC(=O)C2CC(=O)N(Cc3ccco3)C2)cc1 (configuration not stated) -13.8%
COc1cc(S(=O)(=O)N(Cc2ccc(C)cc2)C2CCCCC2)ccc1-n1cnnn1 152%
COC(=O)c1cc(NC(=O)c2ccoc2C)cc(C(=O)OC)c1 7.59%
COc1ccc(NC(=O)CCC(=O)OCc2ccc(C(=O)Oc3ccc(Cl)cc3)cc2)cc1 -10.4%
COc1cccc2cc(-c3csc(CCn4nc(C)cc4C)n3)c(=O)oc12 14.9%
Cc1nn(-c2ccccc2)c(N)c1N=Nc1ccccc1 18.3%
CN(Cc1ccccc1)S(=O)(=O)c1ccc(OCC(=O)N2CCC(C(N)=O)CC2)cc1 -13.5%
Oc1c(C=C2N=c3ccccc3=N2)sc(=S)n1-c1ccc(F)cc1 -13.1%
Cn1ncc(Cl)c1C(=O)NCC1CCCO1 (configuration not stated) 7.47%
COc1ccccc1CNC(=O)CCCNC(=O)c1ccc(Cl)cc1 22%
Cc1ccc(/C=N/Nc2cn[nH]c(=O)n2)o1 -97.4%
O=C1CN(C(=S)Nc2ccccc2Cl)CCN1 -0.667%
O=C(Nc1ccc2oc(=O)ccc2c1)c1ccc(-c2ccccc2[N+](=O)[O-])o1 -23.5%
COc1ccccc1N(CC(O)CN1CCC(C)CC1)S(=O)(=O)c1ccccc1 (configuration not stated) -70.5%
Cc1nn(CC(=O)N2CCN(S(=O)(=O)c3ccccc3)CC2)c(C)c1[N+](=O)[O-] 7.66%
O=C(c1cc2c(s1)CCCC2)N1CCN(Cc2ccc3c(c2)OCO3)CC1 17.5%
Cc1ccc(N=Nc2c(N)[nH]n3c(=O)cc(C)nc23)cc1 -21.5%
CCn1c(=O)cc(OCC(=O)N(C)C2CCCCC2)c2ccccc21 -9.66%
O=C1c2nc3cc(-c4ccco4)[nH]n3c(=O)c2CN1C1CCCCC1 -8.92%
CCc1ccc(N=C2NC(=O)/C(=C/c3ccc(OCC(=O)O)c(OC)c3)S2)cc1 -24.5%
C=CCn1c(NCCc2ccccc2)nc2c1c(=O)n(C)c(=O)n2C -74.7%
COc1ccc(OC)c(-n2c(-c3ccn[nH]3)n[nH]c2=S)c1 -4.68%
CCOC(=O)N1CCN(C(=O)CN2C(=O)NC(c3ccccc3)(c3ccccc3)C2=O)CC1 116%
COC(=O)c1ccc(OCC(O)CNCC(c2ccc(OC)cc2)N(C)C)c(OC)c1 (configuration not stated) -24.4%
O=C(CN1CCOCC1)Nc1ccc2c(c1)OCO2 60.9%
O=C(NC1CCCCC1)C(c1ccco1)N(C(=O)c1csnn1)c1ccccc1 (configuration not stated) 265%
Cc1ccc2nc3c(c(N)c2c1)CCN3c1ccccc1 22.3%
O=C(CSc1nnc(CNC(=O)c2cccs2)o1)Nc1ccccc1C(F)(F)F 135%
Cc1cc(C(=O)N2CCCC(CO)(Cc3ccc(F)cc3)C2)c(C)o1 (configuration not stated) 4.06%
Nn1c(SCC(=O)Nc2ccc(S(N)(=O)=O)cc2)nnc1-c1ccco1 49.4%
COc1cc(CN2CC(=O)N(c3ccc(C)c(C)c3)C2=S)cc(OC)c1OC 16.5%
COCCCNCCCCOc1ccc(Br)cc1Cl 31.2%
Cc1ccc(C(=O)NC(=S)Nc2ccccc2C)cc1 32.5%
N#CC(c1ccncc1)(c1ncc(C(F)(F)F)cc1Cl)N1CCOCC1 (configuration not stated) -43.5%
CN(C(=O)CSc1nncn1-c1ccccc1)c1ccccc1 -79.4%
CCOC(=O)CSc1nc(C2CC2)nc2ccccc12 -5.99%
COc1ccc(CCNC(=O)CCCc2ccccc2)cc1OC -8.96%
CS(=O)(=O)N(CC(=O)Nc1ccc(F)cc1)C1CCCCC1 14.7%
CN(C)C1=NC[C@H](Cc2ccccc2)N1CCc1ccc(F)cc1 16.2%
C=CCn1c(C)cc(-c2csc(NC(=O)C3=COCCO3)n2)c1C 46% [activator] [at 0.0737 µM]
Cc1cc(/C=N/NC(=O)c2ccc(O)cc2)c(C)n1C1CC1 -24.6% [at 9.22 µM]
Cc1ccc(S(=O)(=O)N2CCN(C(=O)C3CCN(C(=O)c4ccccc4C)CC3)CC2)cc1C 8.5%
Cc1cccc(Oc2coc3cc(OC(=O)c4cc5ccccc5oc4=O)ccc3c2=O)c1 -24.5%
CCc1cc(C(=O)c2ccc(OC)cc2)c(NC(=O)CN2CCCCC2)s1 -9.03%
Cc1cccc(C(=O)NC(C)C(c2cccs2)N2CCOCC2)c1 (configuration not stated) 11.8%
CCC1CCCCN1C(=O)CSc1nnc(-c2cccs2)o1 (configuration not stated) -3.61%
CC(=O)Oc1ccc2cc(-c3nc4ccccc4n3C)c(=O)oc2c1 -30.1%
COCCn1c(-c2ccc3ccccc3c2)nc2c1c(=O)[nH]c(=O)n2CC(C)C -62.9%
CSc1ccc(/C=N/N2CCN(Cc3ccc(Cl)cc3)CC2)cc1 15.9%
CCN(CC(=O)Nc1c(F)cccc1F)C(=O)c1ccc(S(=O)(=O)N2CCC(C)CC2)cc1 9.07%

Random excerpt: 2 entries already listed.
Lipid storage change, negative = inhibition, inconclusive:
Cc1cccc(Oc2coc3cc(OC(=O)c4cc5ccccc5oc4=O)ccc3c2=O)c1 -24.5%
COc1ccc(OC)c(-n2c(-c3ccn[nH]3)n[nH]c2=S)c1 -4.68%

Next part:

Potency, inconclusive:
c1ccc2nc3c(nc2c1)sc1nc2ccccc2n13 2.06 µM [activator, partial curve]
Cc1cc(NC(=O)c2cccc(C)c2[N+](=O)[O-])no1 16.4 µM [activator, partial curve]
CCC(=O)NCCc1nc2cc(NC(=O)Nc3ccccc3)ccc2n1C 29.1 µM [activator, single point]
O=C(Nc1ccc(Oc2ccc(NC(=O)Nc3ccc([N+](=O)[O-])cc3)cc2)cc1)Nc1ccc([N+](=O)[O-])cc1 4.61 µM [falling, full curve, poor fit]
O=C(CS(=O)(=O)c1ccccc1)c1cc2ccccc2oc1=O 0.206 µM [falling, full curve]
CCCC1=C(C(=O)OCC)C(c2ccc(O)cc2)n2ncnc2N1 (configuration not stated) 11.6 µM [activator, partial curve, poor fit]
COc1ccc2[nH]c(C)c(CCN3C(=O)C4C5C=CC(C5)C4C3=O)c2c1 (configuration not stated) 1.46 µM [activator, partial curve]
COc1cccc(NC(=O)CSc2nnc(-c3cccc(OC(C)C)c3)n2N)c1 20.6 µM [activator, single point]
O=C(O)c1cccc(S(=O)(=O)N2CCOCC2)c1 29.1 µM [falling, single point]
CCOc1cc(C(=O)N(C)CC(=O)Nc2cccc3ccccc23)ccc1OC 0.103 µM [falling, full curve, poor fit]
c1ccc2c(c1)CCN(c1nc3ccccc3n3cnnc13)C2 1.84 µM [rising, full curve]
CCc1ccc(/C=N/Nc2ncnc3nc[nH]c23)cc1 0.103 µM [falling, full curve, poor fit]
COc1ccc(CN(C)C(=O)c2ccc(Cl)c(S(=O)(=O)NCc3cccnc3)c2)cc1F 5.17 µM [falling, single point]
CCCOc1ccc(/C=N/Nc2ccccc2[N+](=O)[O-])c(O)c1 2.31 µM [activator, partial curve]
CC(=O)Nc1ccc2ccccc2c1 7.31 µM [falling, partial curve]
Cc1onc(-c2ccccc2)c1C(=O)N1CCN(S(=O)(=O)c2ccc(Cl)cc2)CC1 1.64 µM [activator, single point]
CC(C)C[C@H](NC(=O)OC(C)(C)C)C(=O)N1CCC(C(=O)N[C@@H](Cc2c[nH]c3ccccc23)C(=O)O)CC1 29.1 µM [activator, single point]
O=C(Nc1ccncc1)c1ccc(Br)cc1 0.651 µM [activator, full curve, poor fit]
Cc1n[nH]c(C)c1C(=O)CC1(O)C(=O)N(CCc2ccccc2)c2ccc(Cl)cc21 (configuration not stated) 0.58 µM [activator, single point]
COc1ccccc1CNC(=O)c1cc(-c2ccccc2)n(Cc2cc(C)no2)n1 6.51 µM [falling, single point]

An excerpt from above in order of molecular weight, smallest number first:
Potency, inconclusive:
CC(=O)Nc1ccc2ccccc2c1 7.31 µM [falling, partial curve]
Cc1cc(NC(=O)c2cccc(C)c2[N+](=O)[O-])no1 16.4 µM [activator, partial curve]
CCc1ccc(/C=N/Nc2ncnc3nc[nH]c23)cc1 0.103 µM [falling, full curve, poor fit]
CCCOc1ccc(/C=N/Nc2ccccc2[N+](=O)[O-])c(O)c1 2.31 µM [activator, partial curve]
CCC(=O)NCCc1nc2cc(NC(=O)Nc3ccccc3)ccc2n1C 29.1 µM [activator, single point]
CCOc1cc(C(=O)N(C)CC(=O)Nc2cccc3ccccc23)ccc1OC 0.103 µM [falling, full curve, poor fit]
COc1cccc(NC(=O)CSc2nnc(-c3cccc(OC(C)C)c3)n2N)c1 20.6 µM [activator, single point]
Cc1n[nH]c(C)c1C(=O)CC1(O)C(=O)N(CCc2ccccc2)c2ccc(Cl)cc21 (configuration not stated) 0.58 µM [activator, single point]
COc1ccc(CN(C)C(=O)c2ccc(Cl)c(S(=O)(=O)NCc3cccnc3)c2)cc1F 5.17 µM [falling, single point]
CC(C)C[C@H](NC(=O)OC(C)(C)C)C(=O)N1CCC(C(=O)N[C@@H](Cc2c[nH]c3ccccc23)C(=O)O)CC1 29.1 µM [activator, single point]

Next part:

Potency, active:
O=C(N[C@@H](Cc1ccccc1)C(=O)OCc1ccccc1)c1nc[nH]c1C(=O)N[C@@H](Cc1ccccc1)C(=O)OCc1ccccc1 3.26 µM
O=C(C1CCN(S(=O)(=O)c2cnc[nH]2)CC1)N1CCN(Cc2ccc3c(c2)OCO3)CC1 5.8 µM
